From US20040038894A1, “Compounds for modulating cell negative regulations and biological applications thereof” (INSTITUT NATIONAL DE LA SANTE ET DE LA RECHERCHE MEDICALE …, priority 1996, published 2004)
At least one compound was matched to its structure with a doubt left. Where a SMILES comes first, the peptide text is derived from it.

Key:
GST-SHP-1.SH2(N + C) = biological target: T1, GST-SHP-1.SH2(N + C) (Mus musculus, UniProt P29351); test: Surface plasmon resonance (BIAcore), SHP-1 tandem SH2 domains; type: binding, murine; details: calculated from the koff/kon ratio
T1 construct: Using recombinant soluble tandem SH2 domains of SHP-1 and SHP-2; made in house; host or cells: E. coli DH5α
T1 sequence (P29351 1-213 limits assumed): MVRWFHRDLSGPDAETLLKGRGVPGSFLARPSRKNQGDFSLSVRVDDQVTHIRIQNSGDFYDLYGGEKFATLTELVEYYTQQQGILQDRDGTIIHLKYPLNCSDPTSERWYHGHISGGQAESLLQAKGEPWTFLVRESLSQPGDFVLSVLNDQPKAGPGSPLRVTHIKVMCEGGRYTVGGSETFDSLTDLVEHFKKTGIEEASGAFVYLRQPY
Experimental: (§1) Surface plasmon resonance measurements were performed on a BIAcore apparatus (BIAcore). The GST-SHP1.SH2(NC), GST-SHP2.SH2(NC) and GST-SHIP.SH2 fusion proteins generated from the murine phosphatase cDNAs, were purified from DH5α lysates as previously described. Before their use in BIAcore experiments, fusion proteins were dialyzed in HBS buffer pH 7.4 (10 mM HEPES, 150 mM NaCl, 3.4 mM EDTA). Protein purity was assessed by 12.5% SDS-PAGE, and Coomassie blue staining. The running buffer used in all BIAcore experiments consisted of HBS buffer supplemented with 0.05% surfactant P20. Equilibrium constant determination (koff and kon) was performed using BIAevaluation 2.0 software. The equilibrium dissociation constants KD were calculated from the koff/kon ratio.
(§2) Results are illustrated by FIG. 16 showing the BIAcore analysis of NKG2A ITIM interaction with the SH2 domains of SHP-1, SHP-2 and SHIP phosphatases. In FIG. 16, the binding of 100 nM soluble recombinant GST-SHP-1.SH2(N+C), GST-SHP-2.SH2(N+C) or GST-SHIP.SH2 to immobilized NKG2A/B phosphorylated ITIM peptides (25 RU) was monitored by real-time analysis using surface plasmon resonance. Results are expressed as corrected resonance units (CRU) corresponding to the raw RU values after subtraction of background RU value due to the injection medium. […]

GST-SHP-2.SH2(N + C) = biological target: T2, GST-SHP-2.SH2(N + C) (Mus musculus, UniProt P35235); test: Surface plasmon resonance (BIAcore), SHP-2 tandem SH2 domains; type: binding, murine; details: calculated from the koff/kon ratio
T2 construct: Using recombinant soluble tandem SH2 domains of SHP-1 and SHP-2; made in house; host or cells: E. coli DH5α
T2 sequence (P35235 1-216 limits assumed): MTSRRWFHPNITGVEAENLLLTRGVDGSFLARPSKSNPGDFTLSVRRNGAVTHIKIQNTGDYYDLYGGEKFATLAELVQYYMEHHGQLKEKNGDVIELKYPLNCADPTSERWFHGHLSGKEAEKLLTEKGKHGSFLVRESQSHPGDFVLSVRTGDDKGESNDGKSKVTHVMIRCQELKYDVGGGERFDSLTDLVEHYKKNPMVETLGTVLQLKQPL
Experimental: as §1, §2

Compound `CC[C@H](C)[C@H](NC(=O)CCCC[C@@H]1SC[C@@H]2NC(=O)N[C@@H]21)C(=O)N[C@@H](CC(C)C)C(=O)N[C@@H](C)C(=O)N[C@H](C(=O)N[C@@H](CCC(=O)O)C(=O)N[C@@H](CCC(N)=O)C(=O)N[C@@H](CCC(=O)O)C(=O)N[C@H](C(=O)N[C@H](C(=O)N[C@@H](Cc1ccc(OP(=O)(O)O)cc1)C(=O)N[C@@H](C)C(=O)N[C@@H](CCC(=O)O)C(=O)N[C@@H](CC(C)C)C(=O)N[C@@H](CC(N)=O)C(=O)N[C@@H](CC(C)C)C(=O)O)[C@@H](C)O)[C@@H](C)CC)[C@@H](C)O` [NKG2-A C-terminal ITIM, ILATEQEIT40 AELNL] (HELM PEPTIDE1{[O=C1N[C@H]2[C@H](CS[C@H]2CCCCC(=O)[*:2])N1].I.L.A.T.E.Q.E.I.T.[O=C([C@H](Cc1ccc(OP(=O)(O)O)cc1)N[*:1])[*:2]].A.E.L.N.L}$$$$V2.0; N-terminus and C-terminus assumed) has a Kd (GST-SHP-1.SH2(N + C)) of 2.83 nM and a Kd (GST-SHP-2.SH2(N + C)) of 1.57 nM.
